The list shows a part of the results.
Tests used:
Assay in all cases: log2 fold change, soluble protein after heating vs DMSO (PISA); higher = thermal stabilisation; K562 lysate, 10 uM; active = over 0.2 and 3.5 SD of the protein, either way, in both replicates (recomputed)
[1] = compound: C1=CC=C(C=C1)[C@H](COC2=CC3=C(C=C2)NC(=O)N3)NC(=O)C4=CC=CN(C4=O)CC5=CC(=C(C=C5)F)F
Procedure, shortened: (§1)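 K562 pellets were dounce-homogenised in PBS pH 7.4 containing 1 mM MgCl2, and the crude extract, at 1 mg/mL protein, was exposed to 10 μM compound for 30 min. Aliquots were heated for 3 min across 48°C-58°C, pooled, brought to 0.5% NP-40 at 4°C and spun at 21,000xg for 90 min, with the supernatant taken as soluble protein. TMTpro 16plex LC-MS/MS with equalised channel sums quantified that protein. Values are log-two fold changes in thermal stability relative to solvent controls, taken from duplicates.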

The chains behind the UniProt entries cited, without tags or fusion partners. Where a name states a change or a piece, a line headed by the entry shows the natural chain unless it says otherwise.
UniProt Q96SU4: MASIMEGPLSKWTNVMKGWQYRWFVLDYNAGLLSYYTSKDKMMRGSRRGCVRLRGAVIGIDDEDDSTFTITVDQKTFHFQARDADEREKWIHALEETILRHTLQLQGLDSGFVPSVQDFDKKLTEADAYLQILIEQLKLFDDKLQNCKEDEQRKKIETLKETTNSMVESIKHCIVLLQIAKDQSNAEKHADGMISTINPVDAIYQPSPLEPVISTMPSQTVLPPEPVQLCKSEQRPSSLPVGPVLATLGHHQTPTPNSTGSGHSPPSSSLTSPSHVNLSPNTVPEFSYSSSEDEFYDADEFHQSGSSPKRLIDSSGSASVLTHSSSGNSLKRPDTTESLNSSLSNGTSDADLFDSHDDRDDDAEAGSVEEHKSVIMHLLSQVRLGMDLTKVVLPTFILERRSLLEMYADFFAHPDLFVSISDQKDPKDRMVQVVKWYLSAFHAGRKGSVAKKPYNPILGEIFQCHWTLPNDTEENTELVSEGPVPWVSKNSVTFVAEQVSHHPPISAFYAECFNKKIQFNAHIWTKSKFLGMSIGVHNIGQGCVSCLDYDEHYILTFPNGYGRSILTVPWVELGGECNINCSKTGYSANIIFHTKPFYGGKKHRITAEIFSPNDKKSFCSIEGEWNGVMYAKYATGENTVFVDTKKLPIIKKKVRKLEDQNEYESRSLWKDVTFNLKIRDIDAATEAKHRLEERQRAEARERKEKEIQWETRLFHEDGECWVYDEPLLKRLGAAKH
UniProt Q13438: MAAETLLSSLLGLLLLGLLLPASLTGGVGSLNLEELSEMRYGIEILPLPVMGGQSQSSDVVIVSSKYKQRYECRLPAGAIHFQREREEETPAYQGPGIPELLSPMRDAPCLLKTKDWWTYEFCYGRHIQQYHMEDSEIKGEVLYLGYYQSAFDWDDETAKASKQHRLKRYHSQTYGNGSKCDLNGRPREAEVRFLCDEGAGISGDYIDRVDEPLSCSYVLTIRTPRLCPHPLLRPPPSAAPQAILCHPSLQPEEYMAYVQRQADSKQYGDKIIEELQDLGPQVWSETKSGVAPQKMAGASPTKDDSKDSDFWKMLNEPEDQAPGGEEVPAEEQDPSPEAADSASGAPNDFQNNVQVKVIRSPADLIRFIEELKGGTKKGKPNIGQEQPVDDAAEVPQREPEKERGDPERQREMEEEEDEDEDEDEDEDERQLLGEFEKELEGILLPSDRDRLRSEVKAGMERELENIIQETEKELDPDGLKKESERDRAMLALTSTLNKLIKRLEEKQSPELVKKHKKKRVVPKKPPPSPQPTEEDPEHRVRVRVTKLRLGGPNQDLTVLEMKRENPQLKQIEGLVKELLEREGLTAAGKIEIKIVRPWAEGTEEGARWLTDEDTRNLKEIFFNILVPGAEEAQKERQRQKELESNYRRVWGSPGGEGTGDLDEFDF
UniProt Q9BZF1: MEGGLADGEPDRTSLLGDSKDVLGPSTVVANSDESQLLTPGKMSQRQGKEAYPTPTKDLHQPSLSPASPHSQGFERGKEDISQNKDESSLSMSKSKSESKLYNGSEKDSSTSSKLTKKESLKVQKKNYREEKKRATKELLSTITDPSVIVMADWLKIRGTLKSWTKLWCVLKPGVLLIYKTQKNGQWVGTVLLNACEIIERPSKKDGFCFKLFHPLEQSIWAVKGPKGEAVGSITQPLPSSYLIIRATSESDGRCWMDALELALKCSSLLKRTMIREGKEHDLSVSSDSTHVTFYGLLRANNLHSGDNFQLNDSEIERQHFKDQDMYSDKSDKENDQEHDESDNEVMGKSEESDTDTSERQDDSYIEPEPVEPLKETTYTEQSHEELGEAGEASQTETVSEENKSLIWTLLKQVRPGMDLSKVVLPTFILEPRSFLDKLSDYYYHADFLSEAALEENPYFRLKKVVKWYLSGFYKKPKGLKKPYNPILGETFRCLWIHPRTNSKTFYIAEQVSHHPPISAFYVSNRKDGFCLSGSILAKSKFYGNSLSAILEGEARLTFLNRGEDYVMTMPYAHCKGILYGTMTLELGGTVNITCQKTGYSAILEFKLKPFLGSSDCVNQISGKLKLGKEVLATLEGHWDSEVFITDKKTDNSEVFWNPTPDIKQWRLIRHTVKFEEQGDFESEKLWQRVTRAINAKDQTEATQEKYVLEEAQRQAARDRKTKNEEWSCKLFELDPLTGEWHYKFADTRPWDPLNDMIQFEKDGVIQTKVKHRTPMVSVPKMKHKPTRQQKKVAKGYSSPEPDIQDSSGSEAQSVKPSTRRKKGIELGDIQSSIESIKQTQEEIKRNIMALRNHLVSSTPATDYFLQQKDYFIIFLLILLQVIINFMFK
UniProt O15381: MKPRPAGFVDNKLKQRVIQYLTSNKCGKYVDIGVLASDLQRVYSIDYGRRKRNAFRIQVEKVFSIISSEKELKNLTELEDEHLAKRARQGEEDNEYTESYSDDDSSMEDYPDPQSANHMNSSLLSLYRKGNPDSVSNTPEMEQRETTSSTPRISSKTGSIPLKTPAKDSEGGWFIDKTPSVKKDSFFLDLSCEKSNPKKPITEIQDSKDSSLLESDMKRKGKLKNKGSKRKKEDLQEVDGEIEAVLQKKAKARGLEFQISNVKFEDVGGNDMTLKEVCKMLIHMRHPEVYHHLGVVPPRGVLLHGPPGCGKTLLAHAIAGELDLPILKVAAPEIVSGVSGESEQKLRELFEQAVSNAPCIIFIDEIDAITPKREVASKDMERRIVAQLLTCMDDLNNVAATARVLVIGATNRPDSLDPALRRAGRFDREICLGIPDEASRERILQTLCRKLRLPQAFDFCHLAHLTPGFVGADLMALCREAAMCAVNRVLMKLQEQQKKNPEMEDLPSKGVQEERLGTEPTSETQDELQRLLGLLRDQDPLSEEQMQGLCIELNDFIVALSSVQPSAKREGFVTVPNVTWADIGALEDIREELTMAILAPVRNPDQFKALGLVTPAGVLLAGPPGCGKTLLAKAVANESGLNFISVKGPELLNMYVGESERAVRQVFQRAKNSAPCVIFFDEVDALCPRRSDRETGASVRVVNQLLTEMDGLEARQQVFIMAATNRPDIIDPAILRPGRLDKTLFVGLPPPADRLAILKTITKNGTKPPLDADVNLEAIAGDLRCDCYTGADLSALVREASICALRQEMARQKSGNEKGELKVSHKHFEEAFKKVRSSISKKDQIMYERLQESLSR
UniProt Q8NFH3: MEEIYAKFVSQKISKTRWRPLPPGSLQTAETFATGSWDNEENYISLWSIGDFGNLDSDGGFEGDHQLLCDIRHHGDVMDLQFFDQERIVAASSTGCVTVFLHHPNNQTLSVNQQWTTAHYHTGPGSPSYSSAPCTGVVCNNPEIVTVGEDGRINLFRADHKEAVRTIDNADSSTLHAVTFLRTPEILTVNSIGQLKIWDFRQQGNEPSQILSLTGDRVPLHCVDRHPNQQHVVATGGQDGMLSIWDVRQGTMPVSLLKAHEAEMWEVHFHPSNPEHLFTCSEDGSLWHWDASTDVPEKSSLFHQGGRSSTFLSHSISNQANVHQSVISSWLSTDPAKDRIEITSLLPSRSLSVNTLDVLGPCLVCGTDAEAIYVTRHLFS
UniProt Q9BPZ3: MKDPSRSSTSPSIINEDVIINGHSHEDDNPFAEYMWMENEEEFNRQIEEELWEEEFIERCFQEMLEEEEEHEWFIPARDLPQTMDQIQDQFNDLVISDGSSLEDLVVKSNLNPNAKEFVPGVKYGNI
UniProt O14841: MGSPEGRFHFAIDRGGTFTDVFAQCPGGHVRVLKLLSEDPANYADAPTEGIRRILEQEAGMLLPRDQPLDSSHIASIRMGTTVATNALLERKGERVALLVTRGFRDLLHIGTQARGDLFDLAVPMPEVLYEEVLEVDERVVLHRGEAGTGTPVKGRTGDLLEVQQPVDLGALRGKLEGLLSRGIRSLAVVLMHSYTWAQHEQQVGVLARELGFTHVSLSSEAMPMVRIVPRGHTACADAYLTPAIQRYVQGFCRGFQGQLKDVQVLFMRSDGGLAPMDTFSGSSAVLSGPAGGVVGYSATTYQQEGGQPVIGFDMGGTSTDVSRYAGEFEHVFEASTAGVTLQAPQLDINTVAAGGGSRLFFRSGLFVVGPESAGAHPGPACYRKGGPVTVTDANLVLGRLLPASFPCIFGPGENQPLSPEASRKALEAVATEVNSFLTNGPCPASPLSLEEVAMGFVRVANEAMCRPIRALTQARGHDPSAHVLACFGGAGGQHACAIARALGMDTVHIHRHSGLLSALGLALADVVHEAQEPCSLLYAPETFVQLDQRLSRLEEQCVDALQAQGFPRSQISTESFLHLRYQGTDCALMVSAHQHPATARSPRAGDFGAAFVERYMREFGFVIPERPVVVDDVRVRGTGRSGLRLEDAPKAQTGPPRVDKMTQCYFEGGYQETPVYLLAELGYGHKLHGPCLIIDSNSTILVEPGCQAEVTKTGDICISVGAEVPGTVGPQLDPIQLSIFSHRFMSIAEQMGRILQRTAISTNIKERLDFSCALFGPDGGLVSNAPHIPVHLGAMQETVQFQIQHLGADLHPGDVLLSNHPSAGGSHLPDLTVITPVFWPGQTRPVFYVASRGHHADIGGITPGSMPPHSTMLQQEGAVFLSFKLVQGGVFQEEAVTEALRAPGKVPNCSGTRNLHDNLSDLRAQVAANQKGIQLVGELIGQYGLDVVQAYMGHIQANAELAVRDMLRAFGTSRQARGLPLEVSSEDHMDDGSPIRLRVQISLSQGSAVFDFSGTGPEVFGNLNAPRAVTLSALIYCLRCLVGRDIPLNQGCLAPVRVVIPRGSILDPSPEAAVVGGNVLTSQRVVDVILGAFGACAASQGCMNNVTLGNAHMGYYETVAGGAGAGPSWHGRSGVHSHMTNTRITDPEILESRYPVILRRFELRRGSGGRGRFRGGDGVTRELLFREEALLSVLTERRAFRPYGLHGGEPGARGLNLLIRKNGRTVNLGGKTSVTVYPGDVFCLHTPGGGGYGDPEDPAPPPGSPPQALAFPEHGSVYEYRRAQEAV
UniProt Q8TE04: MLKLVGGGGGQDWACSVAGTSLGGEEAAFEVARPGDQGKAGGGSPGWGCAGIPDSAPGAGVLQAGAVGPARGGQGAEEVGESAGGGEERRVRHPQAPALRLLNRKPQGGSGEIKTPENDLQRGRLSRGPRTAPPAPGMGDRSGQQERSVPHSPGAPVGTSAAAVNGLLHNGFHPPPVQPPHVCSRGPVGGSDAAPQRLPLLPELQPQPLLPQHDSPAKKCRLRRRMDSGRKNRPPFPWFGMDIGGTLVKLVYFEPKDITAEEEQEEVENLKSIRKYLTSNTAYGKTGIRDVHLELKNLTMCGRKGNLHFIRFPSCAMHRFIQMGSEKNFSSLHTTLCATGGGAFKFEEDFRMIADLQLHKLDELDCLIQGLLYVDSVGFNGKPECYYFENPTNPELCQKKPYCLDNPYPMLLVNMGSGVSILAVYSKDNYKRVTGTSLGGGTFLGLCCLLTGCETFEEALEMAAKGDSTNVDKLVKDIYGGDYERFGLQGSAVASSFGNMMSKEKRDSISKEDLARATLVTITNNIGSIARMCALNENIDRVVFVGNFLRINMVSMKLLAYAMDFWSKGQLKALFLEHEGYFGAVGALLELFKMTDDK
UniProt Q9BRP4: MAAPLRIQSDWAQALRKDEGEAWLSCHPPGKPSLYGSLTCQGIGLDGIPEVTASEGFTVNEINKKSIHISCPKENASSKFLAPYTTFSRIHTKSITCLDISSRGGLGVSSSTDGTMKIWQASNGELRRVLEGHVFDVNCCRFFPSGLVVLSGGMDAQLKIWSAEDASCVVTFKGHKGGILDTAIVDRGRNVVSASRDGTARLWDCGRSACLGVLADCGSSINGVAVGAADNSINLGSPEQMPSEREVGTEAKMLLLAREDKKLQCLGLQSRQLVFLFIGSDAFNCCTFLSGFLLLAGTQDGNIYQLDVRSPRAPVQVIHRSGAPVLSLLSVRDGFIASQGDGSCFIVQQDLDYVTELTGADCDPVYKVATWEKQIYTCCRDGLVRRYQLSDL
UniProt Q96GU1: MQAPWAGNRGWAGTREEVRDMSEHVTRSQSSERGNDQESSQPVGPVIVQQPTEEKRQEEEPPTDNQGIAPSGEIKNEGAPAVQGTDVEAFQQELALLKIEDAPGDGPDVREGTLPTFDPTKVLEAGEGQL
UniProt Q9Y5N6: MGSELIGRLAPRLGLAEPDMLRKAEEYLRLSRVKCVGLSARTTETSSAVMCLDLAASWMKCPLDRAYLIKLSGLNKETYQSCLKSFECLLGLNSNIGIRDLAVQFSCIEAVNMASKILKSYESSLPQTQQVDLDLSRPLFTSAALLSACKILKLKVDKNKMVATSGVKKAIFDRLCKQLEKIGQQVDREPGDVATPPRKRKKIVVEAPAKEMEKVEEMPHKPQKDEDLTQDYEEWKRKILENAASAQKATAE
UniProt Q15102: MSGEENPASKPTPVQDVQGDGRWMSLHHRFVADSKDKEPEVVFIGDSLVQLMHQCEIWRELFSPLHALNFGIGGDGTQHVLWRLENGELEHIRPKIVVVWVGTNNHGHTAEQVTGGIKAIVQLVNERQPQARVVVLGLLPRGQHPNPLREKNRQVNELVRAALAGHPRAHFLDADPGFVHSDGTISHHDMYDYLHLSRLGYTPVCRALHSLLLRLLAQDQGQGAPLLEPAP

[2] = compound: CC1=C(SC2=C1C(=N[C@H](C3=NN=C(N32)C)CC(=O)N)C4=CC=C(C=C4)Cl)C
Procedure, shortened: as §1

[3] = compound: CC1=C2C(=CC=C1)N=C(N(C2=O)C3=CC=CC=C3C)CN4C=NC5=C(N=CN=C54)N
Procedure, shortened: as §1

[4] = compound: Cc1sc2c(c1C)C(c1ccc(Cl)cc1)=N[C@@H](CC(=O)OC(C)(C)C)c1nnc(C)n1-2
Procedure, shortened: as §1

[5] = compound: c1ccc([C@@H]2C[C@H]2NC2CCNCC2)cc1
Procedure, shortened: as §1

Measured: log2 fold change

OSBPL9 isoform 2 (UniProt Q96SU4)
inactive: [1] -0.052 | [2] 0.039 | [3] 0.002 | [4] 0.005 | [5] 0.005

OMA1 (UniProt Q96E52)
inactive: [1] 0.014 | [2] 0.006 | [3] 0.073 | [4] 0.015 | [5] 0.016

OCRL (UniProt Q01968)
inactive: [1] 0.018 | [2] 0.056 | [3] 0.003 | [4] 0.013 | [5] -0.017

NUP188 (UniProt Q5SRE5)
inactive: [1] -0.044 | [2] -0.009 | [3] 0 | [4] -0.001 | [5] 0.016

OS9 (UniProt Q13438)
inactive: [1] -0.018 | [2] -0.004 | [3] 0.016 | [4] -0.026 | [5] -0.025

NUP88 (UniProt Q99567)
inactive: [1] -0.033 | [2] 0.006 | [3] -0.009 | [4] -0.005 | [5] -0.006

OTUD7B (UniProt Q6GQQ9)
inactive: [1] -0.004 | [2] 0 | [3] -0.001 | [4] -0.02 | [5] 0.035

OXSR1 (UniProt O95747)
inactive: [1] -0.035 | [2] -0.001 | [3] 0.004 | [4] 0.023 | [5] 0.039

OSBPL8 (UniProt Q9BZF1)
inactive: [1] -0.138 | [2] 0.064 | [3] 0.042 | [4] -0.038 | [5] 0.057

NVL (UniProt O15381)
inactive: [1] -0.063 | [2] -0.071 | [3] 0.143 | [4] 0.098 | [5] 0.07

NUP43 (UniProt Q8NFH3)
inactive: [1] 0 | [2] 0.061 | [3] -0.02 | [4] -0.011 | [5] -0.02

PAIP2 (UniProt Q9BPZ3)
inactive: [1] -0.009 | [2] 0.042 | [3] 0.03 | [4] 0.021 | [5] 0.036

PAFAH1B2 (UniProt P68402)
inactive: [1] 0.055 | [2] -0.146 | [3] 0 | [4] -0.071 | [5] -0.09

OSBP2 (UniProt Q969R2)
inactive: [1] 0.021 | [2] 0.046 | [3] 0.019 | [4] -0.095 | [5] -0.439

OPLAH (UniProt O14841)
inactive: [1] -0.02 | [2] -0.025 | [3] -0.01 | [4] 0.086 | [5] 0.031

OPA1 isoform 2 (UniProt O60313)
inactive: [1] -0.048 | [2] 0.021 | [3] 0.038 | [4] 0.005 | [5] 0.084

P3H1 (UniProt Q32P28)
inactive: [1] 0.032 | [2] -0.016 | [3] -0.025 | [4] -0.006 | [5] -0.011

Two neighbouring records already listed:
OPLAH (UniProt O14841)
inactive: [1] -0.02 | [2] -0.025 | [3] -0.01 | [4] 0.086 | [5] 0.031

OPA1 isoform 2 (UniProt O60313)
inactive: [1] -0.048 | [2] 0.021 | [3] 0.038 | [4] 0.005 | [5] 0.084

(cont.)

NUP58 (UniProt Q9BVL2)
inactive: [1] 0.047 | [2] -0.025 | [3] 0.039 | [4] -0.046 | [5] -0.053

PANK1 (UniProt Q8TE04)
inactive: [1] -0.071 | [2] -0.056 | [3] 0.178 | [4] -0.077 | [5] 0.076

P4HB (UniProt P07237)
inactive: [1] 0.049 | [2] -0.008 | [3] -0.003 | [4] -0.003 | [5] -0.002

PAAF1 (UniProt Q9BRP4)
inactive: [1] 0.006 | [2] 0.008 | [3] 0.007 | [4] 0.048 | [5] -0.049

PAGE5 (UniProt Q96GU1)
inactive: [1] -0.008 | [2] -0.084 | [3] 0.01 | [4] -0.054 | [5] 0.232

OPA3 (UniProt Q9H6K4)
inactive: [1] -0.008 | [2] -0.043 | [3] -0.005 | [4] -0.022 | [5] -0.071

ORC6 (UniProt Q9Y5N6)
inactive: [1] 0.046 | [2] 0.019 | [3] -0.059 | [4] 0.006 | [5] 0.13

PAFAH1B3 (UniProt Q15102)
inactive: [1] 0 | [2] 0.042 | [3] 0.045 | [4] 0.047 | [5] 0.014

Reference: the supplement of paper PMC10849652
